Reference: PMC11427701
Residue numbers refer to the chain shown, from its start. Results are given in words; binding and its absence hold for the method and conditions named. Binding seen in cells or lysates may run through a third protein. Some entries that bind do so weakly or less than the wild type. For some assays here: Where a sequence is shown, tags or fusion partners need not be part of it.

Chains of the proteins cited; added tags and fusions are not shown. Residues count along the entry.
UniProt P38647, residues 47-679: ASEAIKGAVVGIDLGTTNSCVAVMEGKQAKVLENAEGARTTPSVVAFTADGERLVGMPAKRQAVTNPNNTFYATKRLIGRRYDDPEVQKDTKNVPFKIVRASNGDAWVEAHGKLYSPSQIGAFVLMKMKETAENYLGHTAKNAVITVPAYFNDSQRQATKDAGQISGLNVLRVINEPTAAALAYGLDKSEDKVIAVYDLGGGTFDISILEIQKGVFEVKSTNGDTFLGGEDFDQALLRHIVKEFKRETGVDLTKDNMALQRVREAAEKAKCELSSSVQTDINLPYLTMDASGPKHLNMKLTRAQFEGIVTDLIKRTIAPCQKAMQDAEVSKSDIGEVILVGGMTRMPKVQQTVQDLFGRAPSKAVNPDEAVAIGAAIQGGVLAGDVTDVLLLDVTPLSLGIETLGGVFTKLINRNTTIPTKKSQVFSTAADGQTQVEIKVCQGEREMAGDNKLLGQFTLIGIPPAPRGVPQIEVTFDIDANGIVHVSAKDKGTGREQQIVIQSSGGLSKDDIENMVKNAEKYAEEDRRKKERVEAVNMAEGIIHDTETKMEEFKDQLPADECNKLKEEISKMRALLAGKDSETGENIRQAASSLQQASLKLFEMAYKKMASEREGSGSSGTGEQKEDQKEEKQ
UniProt P38646, residues 47-679: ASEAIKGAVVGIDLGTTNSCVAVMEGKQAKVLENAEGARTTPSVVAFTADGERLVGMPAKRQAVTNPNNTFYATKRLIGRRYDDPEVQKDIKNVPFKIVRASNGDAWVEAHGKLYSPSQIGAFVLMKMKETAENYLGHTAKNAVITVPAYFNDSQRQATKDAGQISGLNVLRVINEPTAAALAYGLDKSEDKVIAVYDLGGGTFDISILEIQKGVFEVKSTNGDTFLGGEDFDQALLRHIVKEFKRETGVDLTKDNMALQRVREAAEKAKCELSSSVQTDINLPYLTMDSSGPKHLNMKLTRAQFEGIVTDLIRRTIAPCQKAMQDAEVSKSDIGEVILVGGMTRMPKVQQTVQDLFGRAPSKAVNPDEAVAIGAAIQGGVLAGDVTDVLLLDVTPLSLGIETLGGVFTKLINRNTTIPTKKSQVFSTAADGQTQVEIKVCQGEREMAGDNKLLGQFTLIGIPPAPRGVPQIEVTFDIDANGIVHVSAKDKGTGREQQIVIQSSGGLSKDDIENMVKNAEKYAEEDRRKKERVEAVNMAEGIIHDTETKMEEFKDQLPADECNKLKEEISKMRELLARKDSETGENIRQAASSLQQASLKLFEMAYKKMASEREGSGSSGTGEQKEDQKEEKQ

How the values were obtained:
[1] = target: T1, ANT2 expressed from a plasmid in HEK293T cells (not stated (human or mouse cDNA cloned)) (UniProt P05141); assay: co-IP; two-step: HEK293T lysates (Myc-GRP75, ANT2, Flag-UCP1) on anti-Flag magnetic beads overnight, eluted with 1 mg/mL Flag polypeptide, second immunoprecipitation with anti-ANT2 or control IgG
T1 sequence: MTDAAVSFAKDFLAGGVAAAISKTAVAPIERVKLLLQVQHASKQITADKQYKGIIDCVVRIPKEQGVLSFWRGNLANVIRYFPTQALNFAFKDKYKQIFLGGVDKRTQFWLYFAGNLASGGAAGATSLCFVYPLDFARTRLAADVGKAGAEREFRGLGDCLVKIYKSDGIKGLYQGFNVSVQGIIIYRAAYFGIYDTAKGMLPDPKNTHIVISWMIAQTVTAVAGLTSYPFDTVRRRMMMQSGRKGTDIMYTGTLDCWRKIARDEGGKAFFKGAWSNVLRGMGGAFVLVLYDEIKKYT

[2] = target: T2, Flag-UCP1 expressed in HEK293T cells (UniProt P25874); assay: as above
T2 sequence: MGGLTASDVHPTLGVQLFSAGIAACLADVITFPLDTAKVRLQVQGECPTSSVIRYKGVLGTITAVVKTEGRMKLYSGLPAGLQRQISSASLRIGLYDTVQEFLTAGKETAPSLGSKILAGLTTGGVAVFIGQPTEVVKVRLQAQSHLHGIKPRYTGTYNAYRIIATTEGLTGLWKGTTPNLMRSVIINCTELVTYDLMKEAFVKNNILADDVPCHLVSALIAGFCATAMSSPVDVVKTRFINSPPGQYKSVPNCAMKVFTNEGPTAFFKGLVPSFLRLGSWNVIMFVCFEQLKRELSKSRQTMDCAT

[3] = target: Glucose-regulated protein 75 (GRP75), endogenous mouse (mouse (endogenous in iWAT and 3T3-L1 adipocytes)) (UniProt P38647); assay: proximity ligation; Duolink PLA in fixed differentiated 3T3-L1 adipocytes treated with NC-EVs or GRP75-overexpressing EVs; pairs of primary antibodies (anti-GRP75 + anti-ANT2; anti-ANT2 + anti-UCP1)
[4] = target: Glucose-regulated protein 75 (GRP75), endogenous mouse (mouse (endogenous in iWAT and 3T3-L1 adipocytes)) (UniProt P38647); assay: co-IP; endogenous proteins in iWAT lysates of YES2 and LLC tumour-bearing mice; antibodies on protein A/G magnetic beads, overnight at 4 °C, washed ten times with lysis buffer; anti-IgG as negative control
[5] = target: T1, ANT2 expressed from a plasmid in HEK293T cells (not stated (human or mouse cDNA cloned)); assay: co-IP; immunoprecipitation against ANT2 from HEK293T cell lysates with or without transfection of Myc-GRP75
[6] = target: Myc-GRP75 expressed in HEK293T cells (not stated (human or mouse cDNA cloned)) (UniProt P38646); assay: co-IP; lysates of HEK293T cells co-expressing Myc-GRP75, ANT2 and Flag-UCP1; immunoprecipitated with anti-Myc or anti-Flag antibodies
[7] = target: Myc-GRP75 expressed in differentiated 3T3-L1 adipocytes (not stated (human or mouse cDNA cloned)) (UniProt P38647); assay: co-IP; lysates of differentiated 3T3-L1 adipocytes cotransfected with Flag-ANT2 and Myc-GRP75 plasmids; protein A/G magnetic beads, overnight at 4 °C
[8] = target: T3, Adenine nucleotide translocase 2 (ANT2), endogenous mouse (mouse (endogenous in adipose tissue and 3T3-L1 adipocytes)) (UniProt P51881); assay: proximity ligation; Duolink PLA in fixed differentiated 3T3-L1 adipocytes treated with NC-EVs or GRP75-overexpressing EVs; pairs of primary antibodies (anti-GRP75 + anti-ANT2; anti-ANT2 + anti-UCP1)
T3 sequence: T1 sequence with L111R, R155K, V211F, T219S, G267S

In the case of “Myc-GRP75 expressed in HEK293T cells (from UniProt P38646 47-679)”, the binding [1] is reported as “binds” and the binding [2] is reported as “binds”.

B1: Adenine nucleotide translocase 2 (ANT2), endogenous mouse (protein, UniProt P51881 1-298)
chain: T1 sequence with L111R, R155K, V211F, T219S, G267S
B1 was tested, and the binding [3] was “binds” and the binding [4] was “binds”.

B2: Flag-UCP1 expressed in HEK293T cells (protein, UniProt P25874 1-307)
chain: T2 sequence
In the case of B2, the binding [5] is reported as “binds” and the binding [6] is reported as “binds”.

B3: Flag-ANT2 expressed in differentiated 3T3-L1 adipocytes (protein, UniProt P51881 1-298)
chain: T1 sequence with L111R, R155K, V211F, T219S, G267S
B3 was tested, and the binding [7] was “binds”.

B4: Uncoupling protein 1 (UCP1), endogenous mouse (protein, UniProt P12242 1-307)
chain: MVNPTTSEVQPTMGVKIFSAGVSACLADIITFPLDTAKVRLQIQGEGQASSTIRYKGVLGTITTLAKTEGLPKLYSGLPAGIQRQISFASLRIGLYDSVQEYFSSGRETPASLGNKISAGLMTGGVAVFIGQPTEVVKVRMQAQSHLHGIKPRYTGTYNAYRVIATTESLSTLWKGTTPNLMRNVIINCTELVTYDLMKGALVNNKILADDVPCHLLSALVAGFCTTLLASPVDVVKTRFINSLPGQYPSVPSCAMSMYTKEGPTAFFKGFVASFLRLGSWNVIMFVCFEQLKKELMKSRQTVDCTT
In the case of B4, the binding [8] is reported as “binds”.
